Measurements published in paper PMC7819943, “Rice protein-binding microarrays: a tool to detect cis-acting elements near promoter regions in rice”.
The other results are listed elsewhere or left out.

Biological target: T1, OsSMF1 (Oryza sativa, UniProt Q6ZLB0 1-436)
T1 sequence: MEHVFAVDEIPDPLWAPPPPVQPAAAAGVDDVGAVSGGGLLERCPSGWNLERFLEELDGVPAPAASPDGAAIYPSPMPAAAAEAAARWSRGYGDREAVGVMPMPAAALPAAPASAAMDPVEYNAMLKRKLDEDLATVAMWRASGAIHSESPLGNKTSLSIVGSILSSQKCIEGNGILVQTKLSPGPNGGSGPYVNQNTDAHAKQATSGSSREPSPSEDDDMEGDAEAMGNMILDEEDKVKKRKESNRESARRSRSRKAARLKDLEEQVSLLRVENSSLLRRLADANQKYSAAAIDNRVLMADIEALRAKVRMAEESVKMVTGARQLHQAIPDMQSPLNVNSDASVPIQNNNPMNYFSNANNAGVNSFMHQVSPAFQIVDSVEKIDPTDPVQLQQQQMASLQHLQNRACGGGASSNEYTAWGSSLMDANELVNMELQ
Test: protein-binding microarray (RPBM); PBS, 2% BSA, 51.3 ng/ul salmon testes DNA, 50 uM zinc acetate, 200 nM TF, 25 C, 1 h; high values mean tight binding
Details: protein: recombinant; tags: N-terminal polyhistidine and DsRed monomer fusion (pET32a); chain copies: 2; label: CyDye5-dUTP incorporated in the synthesized complementary strand; 3' TTTTT single-stranded linker to array surface; dsDNA, one strand shown
Summary of the method: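 Using Ni–NTA, transcription factors fused N-terminally to polyhistidine and DsRed were purified after expression in E. coli BL21-CodonPlus. These were incubated at 200 nM with a blocked, double-stranded custom Agilent array for 1 h at 25 °C in a buffer containing 50 µM zinc acetate, and the array was washed. The binding signal is per-feature fluorescence intensity (arbitrary units) on an Axon 4000B scanner.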

Row | Sequence | binding signal
1 | TCACTGCTTATAGCTTAGCTTCCTATATAGCTCGATCGATCGGAGTCACCTAGTGCAG | 19000 fluorescence intensity (a.u.)
2 | AATCTTTATTTTGCAAATGGTGACATAAGCTGTGGCTTTGCGGAGTCACCTAGTGCAG | 3520 fluorescence intensity (a.u.)
3 | CAGCAGGCGCCCTCGCCGCGCAGTTCCTGCCACAGGGCTGCGGAGTCACCTAGTGCAG | 3170 fluorescence intensity (a.u.)
4 | GTTCGTCGATGACCTGACCTTGGTAGTTTTACCTGTGTTCCGGAGTCACCTAGTGCAG | 3360 fluorescence intensity (a.u.)
5 | AACGTGGCTAATATATGCCACCTCGGATGGAGTCAGCGCTCGGAGTCACCTAGTGCAG | 7010 fluorescence intensity (a.u.)
6 | CAGTGACGGGAAAGGGAAGACACGTGTGGCATGACCGCATCGGAGTCACCTAGTGCAG | 4900 fluorescence intensity (a.u.)
7 | ACAGCCTGCAATATTGCACGTGTACTTGTGGCCGTAACAGCGGAGTCACCTAGTGCAG | 3300 fluorescence intensity (a.u.)
8 | GCTGAGTATATGTGTGTGCACACGTCTTCCAACGTGTCATCGGAGTCACCTAGTGCAG | 10400 fluorescence intensity (a.u.)
9 | AGACAAATCTTTTGAGTCTAATTACGTCATGATTTGACCACGGAGTCACCTAGTGCAG | 9060 fluorescence intensity (a.u.)
10 | ATCTCTCTAGCACGGCCGGATGAATCAACCACGTACGCGGCGGAGTCACCTAGTGCAG | 5260 fluorescence intensity (a.u.)
11 | AGCTCCAATGGCGTCCCTCACACCTCCCCGCCCACCATTCCGGAGTCACCTAGTGCAG | 4170 fluorescence intensity (a.u.)
12 | AATGTAGTACTGGATATGACACATCCTAGTACTATGAATCCGGAGTCACCTAGTGCAG | 3250 fluorescence intensity (a.u.)
13 | AATGCGGGAATCCACATAATTTCCATTTGAATCATACAAACGGAGTCACCTAGTGCAG | 3250 fluorescence intensity (a.u.)
14 | GAATAAGGAGAGCATGACGGAAAATATGACGACGATGGTACGGAGTCACCTAGTGCAG | 3770 fluorescence intensity (a.u.)
15 | TAATAAGCATGCACGCATTATGATATGGCGGTTCTGGTCGCGGAGTCACCTAGTGCAG | 3450 fluorescence intensity (a.u.)
16 | ACGATGATGTGCAGGGTGTCCGGTGGCGGCTCCCCTCCCCCGGAGTCACCTAGTGCAG | 3230 fluorescence intensity (a.u.)
17 | TTGCCAGTTTGCCACCTCGCGTCATGGATCGCCCTTTTGCCGGAGTCACCTAGTGCAG | 3950 fluorescence intensity (a.u.)
18 | CTTGGAATTACCCATGTCAGTGAGCCAGTGAGGTCAGCGTCGGAGTCACCTAGTGCAG | 3840 fluorescence intensity (a.u.)
19 | GGTAGCTGATACAGGTATGCAGACGAAAGATCACACCTATCGGAGTCACCTAGTGCAG | 32500 fluorescence intensity (a.u.)
20 | TCCTCCCACGCTTCTTCTTCTTCTTCTTCTTCCCTTTCCCCGGAGTCACCTAGTGCAG | 9800 fluorescence intensity (a.u.)
21 | TATTGTTCAGAGATTAAGATGACGATACCTGCTAGTATAACGGAGTCACCTAGTGCAG | 3980 fluorescence intensity (a.u.)

Single values from the results shown.
Value of CAGCAGGCGCCCTCGCCGCGCAGTTCCTGCCACAGGGCTGCGGAGTCACCTAGTGCAG under binding signal: 3170 fluorescence intensity (a.u.)
Value of ACAGCCTGCAATATTGCACGTGTACTTGTGGCCGTAACAGCGGAGTCACCTAGTGCAG under binding signal: 3300 fluorescence intensity (a.u.)

Next results

Row | Sequence | binding signal
22 | ACAAGTTGAAACTAGCTCGCGATCTGTGTTGCGTGAGCGTCGGAGTCACCTAGTGCAG | 3470 fluorescence intensity (a.u.)
23 | TCACTCTCGGCCTTCCTTCCACGGCAGCGCCACCCACTGCCGGAGTCACCTAGTGCAG | 23600 fluorescence intensity (a.u.)
24 | CAACCTCAAGCCGAAGACCATATCATTGACCACATCTTGCCGGAGTCACCTAGTGCAG | 3700 fluorescence intensity (a.u.)
25 | GCGTGTTCCTCCTCCTACCTATTCCCGGGCCCGCACGTCACGGAGTCACCTAGTGCAG | 3320 fluorescence intensity (a.u.)
26 | TGGACCCAGACCGTCCGATCAGTAACGTGCGCACCAGATTCGGAGTCACCTAGTGCAG | 3270 fluorescence intensity (a.u.)
27 | GGGAGGCGCCGCGTGGCGGAGACCGCGTCCGCCTTCGTGACGGAGTCACCTAGTGCAG | 3540 fluorescence intensity (a.u.)
28 | CAGATGGGTCGGGCCAAAATGTGCTGCGTGGGACACGTGACGGAGTCACCTAGTGCAG | 3400 fluorescence intensity (a.u.)
29 | TATAACTACTGCACGAGAATGACGTAGGGTGATGACACGACGGAGTCACCTAGTGCAG | 8520 fluorescence intensity (a.u.)
30 | TAGTCCATCACCCTCGCTCAGTGACTCATATCACCCCACACGGAGTCACCTAGTGCAG | 11200 fluorescence intensity (a.u.)
31 | AAGAGCTTCATGCGCGTAAGAATGTCAGAATTGCACTCTGCGGAGTCACCTAGTGCAG | 3140 fluorescence intensity (a.u.)
32 | GAAACGCTGCTTCTCATGACCCAACCCTGGAATCCTTGACCGGAGTCACCTAGTGCAG | 4090 fluorescence intensity (a.u.)
33 | TCATGCGTATGTTAATTATATATGATTATTAGAAATTTTACGGAGTCACCTAGTGCAG | 30200 fluorescence intensity (a.u.)
34 | TTAAATAGAATGCTGACTGAACTGTCACGTGTAGACCAAACGGAGTCACCTAGTGCAG | 3480 fluorescence intensity (a.u.)
35 | CAGGCTAGGCTGGATAGGAAAGAGATGGGAATCCTAGTCACGGAGTCACCTAGTGCAG | 3540 fluorescence intensity (a.u.)
36 | TCGGCGGCGCTACCGCGGATGACGACGCACCCGACGACGACGGAGTCACCTAGTGCAG | 3760 fluorescence intensity (a.u.)
37 | CCTTATGTCTTCAGCGTCCTACGTGTAAGCTAGGGAAACCCGGAGTCACCTAGTGCAG | 6260 fluorescence intensity (a.u.)
38 | AGGCTGTGTTTAGTTCCACGTCAAAATTAGAAGTTTGAAGCGGAGTCACCTAGTGCAG | 4270 fluorescence intensity (a.u.)
39 | GAGCGAGGGGCCTGGTCGGCGAGGGTGAGCAGCCCAGTGTCGGAGTCACCTAGTGCAG | 25200 fluorescence intensity (a.u.)
40 | GCTTCCGACGTGCTTCTGCCATTCATTACACCATGTTTCTCGGAGTCACCTAGTGCAG | 3980 fluorescence intensity (a.u.)
41 | AATCAGCCGGACATGTTTGGCTGGGTAAAACAATACTTGTCGGAGTCACCTAGTGCAG | 3230 fluorescence intensity (a.u.)
42 | AGCAGCCAGAACTTACTTATGCAGAAGCTAGTCATCCATGCGGAGTCACCTAGTGCAG | 4670 fluorescence intensity (a.u.)
